Experimental data: PubChem BioAssay AID1117269 (University of Michigan, 2014)
Aim: 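Which kinase knockdowns increase BTR reporter light after TGF-beta stimulation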 (primary screen). System: human A549 lung cancer and 1833 breast cancer (MDA-MB-231-derived) cell lines carrying a stable BTR luciferase reporter. Knock-down reagent: siRNA pool against human genes. Duration: 72 h after transfection, then 1 h TGF-beta before the read. Challenge: TGF-beta 10 ng/mL added one hour before luciferin and read-out. Measurement: 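Live-cell BTR luciferase signal at 72 h after transfection and 1 h of TGF-beta at 10 ng/mL, fold versus scrambled siRNA, triplicate mean for each line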. Reading the numbers: fold over scrambled siRNA, A549 and fold over scrambled siRNA, 1833: higher = more reporter light, weaker TGF-beta receptor signalling. Active means: 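Hit in either line counts as active; per-line hits lie above an upper limit from quartiles of averaged log fold values, in plate and screen-wide analyses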. Meaning of the calls: active = hit in at least one line; inactive = hit in neither line.
Shown is one part, drawn at random, of 714 deposited reagents. 49 of them (6.9%) count as active. 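Active means a hit in at least one line; per-line hit columns show which; some siRNA pools appear more than once.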 A number with no mark means an inactive call. Not stated in the record: the amount of reagent.

Gene | fold over scrambled siRNA, A549 | fold over scrambled siRNA, 1833 | hit in A549 | hit in 1833
IP6K2 (GeneID 51447) | 1.71 | 1.9 | not a hit in A549 | not a hit in 1833
ROR2 (GeneID 4920) | 2.22 | 4.8 | not a hit in A549 | not a hit in 1833
MAPK14 (GeneID 1432) | 1.93 | 2.49 | not a hit in A549 | not a hit in 1833
ITPKC (GeneID 80271) | 1.78 | 2 | not a hit in A549 | not a hit in 1833
ERBB4 (GeneID 2066) | 1.33 | 2.9 | not a hit in A549 | not a hit in 1833
CAMKK2 (GeneID 10645) | 2.05 | 4 | not a hit in A549 | not a hit in 1833
IP6K1 (GeneID 9807) | 1.17 | 2.39 | not a hit in A549 | not a hit in 1833
SRPK3 (GeneID 26576) | 2.29 | 4.93 | not a hit in A549 | not a hit in 1833
AGK (GeneID 55750) | 2.71 | 4.93 | not a hit in A549 | not a hit in 1833
HK3 (GeneID 3101) | 2.82 | 6.8 | not a hit in A549 | not a hit in 1833
CDKN2C (GeneID 1031) | 0.779 | 2.87 | not a hit in A549 | not a hit in 1833
LMBR1 (GeneID 64327) | 3.38 | 6.19 | not a hit in A549 | not a hit in 1833
CHKB (GeneID 1120) | 2.67 | 6.14 | not a hit in A549 | not a hit in 1833
MAPK9 (GeneID 5601) | 5.9 (active) | 5.67 | hit in A549 | not a hit in 1833
DLG1 (GeneID 1739) | 1.19 | 1 | not a hit in A549 | not a hit in 1833
AKT3 (GeneID 10000) | 0.377 | 2 | not a hit in A549 | not a hit in 1833

A run of entries from the list above, as a working copy:
Gene | fold over scrambled siRNA, A549 | fold over scrambled siRNA, 1833 | hit in A549 | hit in 1833
ITPKC (GeneID 80271) | 1.78 | 2 | not a hit in A549 | not a hit in 1833
ERBB4 (GeneID 2066) | 1.33 | 2.9 | not a hit in A549 | not a hit in 1833

Next entries:
Gene | fold over scrambled siRNA, A549 | fold over scrambled siRNA, 1833 | hit in A549 | hit in 1833
PNKP (GeneID 11284) | 2.58 | 5.29 | not a hit in A549 | not a hit in 1833
CDK4 (GeneID 1019) | 1.67 | 6.57 | not a hit in A549 | not a hit in 1833
WNK1 (GeneID 65125) | 1.43 | 3.48 | not a hit in A549 | not a hit in 1833
CDK16 (GeneID 5127) | 1.37 | 3.26 | not a hit in A549 | not a hit in 1833
PLK1 (GeneID 5347) | 0.429 | 4.1 | not a hit in A549 | not a hit in 1833
CLK4 (GeneID 57396) | 1.56 | 1.22 | not a hit in A549 | not a hit in 1833
NTRK2 (GeneID 4915) | 1.1 | 2.95 | not a hit in A549 | not a hit in 1833
DUSP21 (GeneID 63904) | 2.81 | 3.1 | not a hit in A549 | not a hit in 1833
ACVR1C (GeneID 130399) | 2.46 | 4.87 | not a hit in A549 | not a hit in 1833
MASTL (GeneID 84930) | 1.76 | 3.79 | not a hit in A549 | not a hit in 1833
MTOR (GeneID 2475) | 0.849 | 1.2 | not a hit in A549 | not a hit in 1833
DYRK4 (GeneID 8798) | 3.53 | 3.73 | not a hit in A549 | not a hit in 1833
PSTK (GeneID 118672) | 1.43 | 2.38 | not a hit in A549 | not a hit in 1833
ACVR2A (GeneID 92) | 1.61 | 2.07 | not a hit in A549 | not a hit in 1833
PRP4K (GeneID 8899) | 0.619 | 2.52 | not a hit in A549 | not a hit in 1833
CSNK1A1 (GeneID 1452) | 5.74 (active) | 2.63 | hit in A549 | not a hit in 1833
GUCY2D (GeneID 3000) | 0.913 | 1.73 | not a hit in A549 | not a hit in 1833
HUNK (GeneID 30811) | 0.824 | 1.26 | not a hit in A549 | not a hit in 1833
PTK2B (GeneID 2185) | 1.35 | 1.47 | not a hit in A549 | not a hit in 1833
CLK2 (GeneID 1196) | 0.875 | 1.37 | not a hit in A549 | not a hit in 1833
CDKN2B (GeneID 1030) | 1.24 | 3.05 | not a hit in A549 | not a hit in 1833
NUP62 (GeneID 23636) | 0.816 | 5.07 | not a hit in A549 | not a hit in 1833
NME1 (GeneID 4830) | 2.02 | 3.19 | not a hit in A549 | not a hit in 1833
